These are yes or no findings as the source states them, for the method shown. In cells and extracts the contact can be indirect. Some entries that bind do so weakly or less than the wild type.
Biological target: T1, YFPN-FGT1 (A. thaliana) (UniProt F4IF36)
T1 sequence: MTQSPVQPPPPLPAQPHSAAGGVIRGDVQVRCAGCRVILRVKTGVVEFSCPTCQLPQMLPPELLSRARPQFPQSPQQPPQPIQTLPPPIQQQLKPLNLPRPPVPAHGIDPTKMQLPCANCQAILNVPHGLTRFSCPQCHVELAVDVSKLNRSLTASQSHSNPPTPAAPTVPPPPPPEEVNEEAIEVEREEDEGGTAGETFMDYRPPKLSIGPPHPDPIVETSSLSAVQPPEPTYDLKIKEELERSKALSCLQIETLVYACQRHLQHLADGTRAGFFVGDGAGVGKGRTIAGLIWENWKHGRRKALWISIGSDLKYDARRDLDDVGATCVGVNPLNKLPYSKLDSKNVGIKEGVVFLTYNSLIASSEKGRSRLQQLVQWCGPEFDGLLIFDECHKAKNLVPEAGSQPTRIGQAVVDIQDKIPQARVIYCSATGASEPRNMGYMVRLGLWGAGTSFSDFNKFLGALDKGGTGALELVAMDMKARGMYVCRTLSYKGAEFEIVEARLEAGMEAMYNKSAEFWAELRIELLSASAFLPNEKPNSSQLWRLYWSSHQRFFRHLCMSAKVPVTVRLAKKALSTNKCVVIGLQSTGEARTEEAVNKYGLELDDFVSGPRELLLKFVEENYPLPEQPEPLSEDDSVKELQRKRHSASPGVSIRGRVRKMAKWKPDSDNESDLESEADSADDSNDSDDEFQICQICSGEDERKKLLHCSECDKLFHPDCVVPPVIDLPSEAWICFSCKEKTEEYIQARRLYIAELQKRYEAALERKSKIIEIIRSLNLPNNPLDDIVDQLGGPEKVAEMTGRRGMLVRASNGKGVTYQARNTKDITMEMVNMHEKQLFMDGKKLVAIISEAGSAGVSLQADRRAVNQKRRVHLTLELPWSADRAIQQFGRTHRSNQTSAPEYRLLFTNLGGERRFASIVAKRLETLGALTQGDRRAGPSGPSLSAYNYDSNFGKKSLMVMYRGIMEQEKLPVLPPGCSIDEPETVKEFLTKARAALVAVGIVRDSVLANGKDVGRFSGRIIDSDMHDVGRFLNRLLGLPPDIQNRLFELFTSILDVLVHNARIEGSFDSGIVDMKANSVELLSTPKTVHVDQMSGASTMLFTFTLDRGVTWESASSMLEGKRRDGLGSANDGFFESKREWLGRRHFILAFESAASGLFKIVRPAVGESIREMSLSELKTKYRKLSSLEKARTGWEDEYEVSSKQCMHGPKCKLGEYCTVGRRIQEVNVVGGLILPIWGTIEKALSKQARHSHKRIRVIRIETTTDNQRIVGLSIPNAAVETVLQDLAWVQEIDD
Assay: split reporter; BiFC: YFPN and YFPC fusion constructs co-expressed in Nicotiana benthamiana leaves by A. tumefaciens infiltration; YFP fluorescence analysed 2 d after infiltration by confocal microscopy

Amino acid sequences for entries named in this document (tags omitted).
UniProt F4JY24: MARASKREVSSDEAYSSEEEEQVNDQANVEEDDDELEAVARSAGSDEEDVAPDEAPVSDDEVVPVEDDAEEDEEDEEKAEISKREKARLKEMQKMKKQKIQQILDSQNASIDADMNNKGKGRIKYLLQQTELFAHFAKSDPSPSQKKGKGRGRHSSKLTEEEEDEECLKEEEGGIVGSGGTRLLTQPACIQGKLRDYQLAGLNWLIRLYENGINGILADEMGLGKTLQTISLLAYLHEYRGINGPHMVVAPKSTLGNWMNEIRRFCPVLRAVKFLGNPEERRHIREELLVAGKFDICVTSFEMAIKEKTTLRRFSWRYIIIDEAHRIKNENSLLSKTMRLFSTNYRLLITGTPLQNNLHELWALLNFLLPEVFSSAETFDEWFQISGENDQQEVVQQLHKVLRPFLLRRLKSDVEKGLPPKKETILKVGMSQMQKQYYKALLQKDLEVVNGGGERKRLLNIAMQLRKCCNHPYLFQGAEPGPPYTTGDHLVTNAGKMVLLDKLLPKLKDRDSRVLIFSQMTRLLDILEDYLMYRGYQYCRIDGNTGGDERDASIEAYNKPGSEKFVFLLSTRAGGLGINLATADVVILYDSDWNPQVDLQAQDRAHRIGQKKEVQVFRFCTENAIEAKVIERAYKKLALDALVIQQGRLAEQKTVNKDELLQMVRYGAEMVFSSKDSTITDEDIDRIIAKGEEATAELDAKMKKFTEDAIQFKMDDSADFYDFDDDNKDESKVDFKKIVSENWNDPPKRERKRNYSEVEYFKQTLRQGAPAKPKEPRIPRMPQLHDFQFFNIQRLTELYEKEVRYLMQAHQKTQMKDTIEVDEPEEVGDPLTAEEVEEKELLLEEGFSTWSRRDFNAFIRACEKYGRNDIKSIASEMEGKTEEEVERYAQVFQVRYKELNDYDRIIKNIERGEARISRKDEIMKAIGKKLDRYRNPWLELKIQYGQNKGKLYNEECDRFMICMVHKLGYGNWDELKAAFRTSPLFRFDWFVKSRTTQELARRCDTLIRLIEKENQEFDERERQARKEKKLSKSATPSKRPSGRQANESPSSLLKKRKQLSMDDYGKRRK
UniProt Q6EVK6: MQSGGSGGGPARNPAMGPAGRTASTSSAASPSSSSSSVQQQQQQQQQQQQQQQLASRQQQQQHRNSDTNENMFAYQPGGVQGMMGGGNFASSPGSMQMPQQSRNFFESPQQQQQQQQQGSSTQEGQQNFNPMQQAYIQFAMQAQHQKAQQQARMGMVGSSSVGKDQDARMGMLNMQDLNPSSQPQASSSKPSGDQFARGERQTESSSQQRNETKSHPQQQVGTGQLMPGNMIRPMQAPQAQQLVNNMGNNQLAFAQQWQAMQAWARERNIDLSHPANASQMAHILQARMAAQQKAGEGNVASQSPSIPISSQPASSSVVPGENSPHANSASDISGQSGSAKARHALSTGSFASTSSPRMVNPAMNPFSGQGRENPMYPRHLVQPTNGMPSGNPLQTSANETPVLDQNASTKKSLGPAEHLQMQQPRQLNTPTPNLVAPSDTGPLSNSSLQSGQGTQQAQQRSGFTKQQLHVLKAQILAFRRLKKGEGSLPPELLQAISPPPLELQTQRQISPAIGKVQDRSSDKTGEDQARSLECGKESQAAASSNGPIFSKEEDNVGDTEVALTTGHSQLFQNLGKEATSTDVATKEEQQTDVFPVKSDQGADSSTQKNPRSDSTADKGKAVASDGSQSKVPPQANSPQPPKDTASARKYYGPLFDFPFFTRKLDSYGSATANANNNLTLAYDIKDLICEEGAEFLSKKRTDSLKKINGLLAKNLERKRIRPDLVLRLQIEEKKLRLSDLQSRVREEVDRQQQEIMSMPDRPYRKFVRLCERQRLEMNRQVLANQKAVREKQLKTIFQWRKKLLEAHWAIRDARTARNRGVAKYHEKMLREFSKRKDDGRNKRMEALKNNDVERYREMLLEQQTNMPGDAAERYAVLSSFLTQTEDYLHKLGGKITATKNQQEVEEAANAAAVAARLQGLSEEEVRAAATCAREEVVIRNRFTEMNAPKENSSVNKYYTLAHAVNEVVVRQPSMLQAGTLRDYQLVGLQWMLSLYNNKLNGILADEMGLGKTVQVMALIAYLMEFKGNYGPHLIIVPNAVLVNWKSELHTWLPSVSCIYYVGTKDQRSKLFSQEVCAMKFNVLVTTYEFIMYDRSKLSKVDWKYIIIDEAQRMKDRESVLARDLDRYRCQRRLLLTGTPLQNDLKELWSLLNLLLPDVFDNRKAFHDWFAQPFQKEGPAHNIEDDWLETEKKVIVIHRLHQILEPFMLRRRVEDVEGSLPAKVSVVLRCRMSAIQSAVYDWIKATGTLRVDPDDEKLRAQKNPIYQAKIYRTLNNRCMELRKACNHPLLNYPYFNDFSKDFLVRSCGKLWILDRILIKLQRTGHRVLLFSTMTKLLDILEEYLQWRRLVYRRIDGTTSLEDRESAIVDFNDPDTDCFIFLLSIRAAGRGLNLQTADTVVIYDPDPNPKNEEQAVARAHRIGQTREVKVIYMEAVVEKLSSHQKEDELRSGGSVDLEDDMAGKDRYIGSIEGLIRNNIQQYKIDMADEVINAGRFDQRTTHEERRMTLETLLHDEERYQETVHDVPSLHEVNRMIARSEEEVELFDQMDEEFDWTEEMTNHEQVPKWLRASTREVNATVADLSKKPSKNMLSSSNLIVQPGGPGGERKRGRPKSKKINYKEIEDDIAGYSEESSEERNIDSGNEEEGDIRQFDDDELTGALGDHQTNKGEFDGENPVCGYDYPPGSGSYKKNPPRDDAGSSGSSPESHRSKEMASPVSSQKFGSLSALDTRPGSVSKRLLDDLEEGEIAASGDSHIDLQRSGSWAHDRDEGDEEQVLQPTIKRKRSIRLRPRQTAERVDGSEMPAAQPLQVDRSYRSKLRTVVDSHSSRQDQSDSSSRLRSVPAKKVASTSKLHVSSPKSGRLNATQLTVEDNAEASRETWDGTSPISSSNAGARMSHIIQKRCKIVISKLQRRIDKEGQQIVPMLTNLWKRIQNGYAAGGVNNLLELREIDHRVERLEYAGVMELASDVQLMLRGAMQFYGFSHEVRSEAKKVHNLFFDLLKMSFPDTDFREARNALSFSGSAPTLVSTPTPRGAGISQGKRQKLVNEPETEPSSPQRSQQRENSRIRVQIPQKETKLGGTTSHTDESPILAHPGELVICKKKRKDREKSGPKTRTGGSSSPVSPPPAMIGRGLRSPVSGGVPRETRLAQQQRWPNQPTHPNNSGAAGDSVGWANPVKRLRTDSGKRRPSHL
UniProt Q8RWY3: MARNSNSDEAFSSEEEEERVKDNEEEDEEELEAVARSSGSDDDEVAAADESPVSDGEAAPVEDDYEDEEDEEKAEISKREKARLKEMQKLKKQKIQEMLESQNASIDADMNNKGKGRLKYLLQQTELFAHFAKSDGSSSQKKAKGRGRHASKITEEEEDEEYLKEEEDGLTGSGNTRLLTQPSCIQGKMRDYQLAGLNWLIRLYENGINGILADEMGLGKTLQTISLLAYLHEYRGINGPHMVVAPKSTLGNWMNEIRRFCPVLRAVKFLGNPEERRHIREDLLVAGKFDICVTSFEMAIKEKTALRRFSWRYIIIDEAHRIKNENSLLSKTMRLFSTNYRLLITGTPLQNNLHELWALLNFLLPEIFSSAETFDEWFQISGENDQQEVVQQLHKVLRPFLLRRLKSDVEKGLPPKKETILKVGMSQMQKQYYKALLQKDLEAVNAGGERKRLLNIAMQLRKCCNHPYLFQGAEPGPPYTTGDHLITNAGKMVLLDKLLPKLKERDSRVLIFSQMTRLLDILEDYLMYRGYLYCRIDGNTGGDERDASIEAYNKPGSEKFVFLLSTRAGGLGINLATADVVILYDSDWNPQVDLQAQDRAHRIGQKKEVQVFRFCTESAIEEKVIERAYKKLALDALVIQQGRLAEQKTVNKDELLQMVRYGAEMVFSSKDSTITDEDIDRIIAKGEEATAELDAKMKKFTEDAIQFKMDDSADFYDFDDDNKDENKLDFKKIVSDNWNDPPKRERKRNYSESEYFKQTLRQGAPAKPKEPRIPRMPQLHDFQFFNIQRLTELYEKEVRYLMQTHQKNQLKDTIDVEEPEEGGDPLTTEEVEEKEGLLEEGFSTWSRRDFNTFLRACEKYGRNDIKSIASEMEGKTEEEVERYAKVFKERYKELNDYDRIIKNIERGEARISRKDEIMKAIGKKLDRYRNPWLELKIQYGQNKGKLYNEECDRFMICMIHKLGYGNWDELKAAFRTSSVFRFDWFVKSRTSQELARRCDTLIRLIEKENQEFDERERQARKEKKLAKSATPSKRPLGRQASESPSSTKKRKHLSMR

binding, binds:
YFPC-CHR17 (from UniProt F4JY24 1-1069), YFPC-BRM (from UniProt Q6EVK6 1-2193), YFPC-CHR11 (from UniProt Q8RWY3 1-1056)
